Experiment: general procedure: Fmoc solid-phase peptide synthesis; Wang resin (0.3 g, 1.1 mmol/g loading capacity); DCC/HOBt; HBTU/HOBt/DIPEA for cyclisation
Details: for crude HPLC purity / crude yield: whole synthesis; for crude HPLC purity / final HPLC purity: analytical RP HPLC on C18; for crude yield: on resin loading; for final HPLC purity: late stage modification step

Substance	crude HPLC purity	crude yield	final HPLC purity
H-(R)-Phu-Leu-Ala-Val-(S)-Asp-OBn	79%	40%	
H-(R)-Phu-Leu-Asp(OBn)-Phg-(S)-Asp-OBn	74%	37%	
H-(R)-Phu-Leu-Asp(OBn)-Val-(R)-Asp-OBn	85%	44%	
H-(R)-Phu-Leu-Asp(OBn)-Val-(R)-β3homoAla-OH	78%	47%	
H-(R)-Phu-Leu-Asp(OBn)-Val-(S)-Asp-OBn	79%	34%	
H-(S)-Phu-Leu-Ala-Val-(S)-Asp-OBn	83%	46%	
H-(S)-Phu-Leu-Asp(OBn)-Val-(R)-Asp-OBn	81%	24%	
H-(S)-Phu-Leu-Asp(OBn)-Val-(R)-β3homoAla-OH	75%	27%	
H-(S)-Phu-Leu-Asp(OBn)-Val-(S)-Asp-OBn	80%	22%	
H-(S)-Phu-Leu-Asp(OBn)-Val-(S)-Asp-nPr	82%	45%	
H-(S)-Phu-Phe-Ala-Val-(S)-Asp-OBn	85%	36%	
H-(S)-Phu-Phe-Asp(OBn)-Val-(S)-Asp-OBn	73%	48%	
c[(R)-Phu-LAV-(S)-isoAsp]			97%
c[(R)-Phu-LD-Phg-(S)-isoAsp]			96%
c[(R)-Phu-LDV-(R)-isoAsp]			99%
c[(R)-Phu-LDV-(R)-β^3Ala]			98%
c[(R)-Phu-LDV-(S)-isoAsp]			97%
c[(S)-Phu-FAV-(S)-isoAsp]			98%
c[(S)-Phu-FDV-(S)-isoAsp]			97%
c[(S)-Phu-LAV-(S)-isoAsp]			95%
c[(S)-Phu-LDV-(R)-isoAsp]			97%
c[(S)-Phu-LDV-(R)-β^3Ala]			97%
c[(S)-Phu-LDV-(S)-isoAsp(NHPr)]			98%
c[(S)-Phu-LDV-(S)-isoAsp]			98%
